Measured data: PubChem BioAssay AID686943 (Drosophila RNAi Screening Center, 2013)
In all, the deposit lists about 23,000 reagents; shown is an unselected part of those with a known target gene and a result. 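Extra replicates exist only for a retested subset of genes; insulin dose and duration not given; both raised and lowered dpERK matter.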 Names joined by + are all predicted targets of the reagent. Further read-outs or replicates are left out here. The record does not give: the amount of reagent, the time to read-out.

- Test: 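Fly genes whose loss alters ERK activation after insulin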 (primary screen)
- Cell system: Drosophila S2R+ haemocyte-like cells expressing YFP-tagged ERK (Rolled)
- Knock-down reagent: long dsRNA against Drosophila genes
- Challenge: insulin stimulation versus unstimulated cells; dose and duration not given
- Measurement: 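Antibody staining for doubly phosphorylated ERK divided by ERK-YFP signal, as plate z-scores, in insulin-treated and untreated cells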
- Direction: replicate 1, z-score of dpERK with insulin: higher = more active ERK per ERK-YFP after insulin

replicate 1, z-score of dpERK with insulin, by gene and reagent
Tsr1: DRSC11821 0.22
Prps: DRSC08994 -0.15; DRSC10707 -0.35; DRSC10708 0.07
Cpr47Ee: DRSC06343 -2.8
CG42402: DRSC21116 -0.46
Hs6st: DRSC14348 0.65; DRSC15182 0.55; DRSC15581 -0.58; DRSC21732 -3.83
Cap-D3: DRSC02349 -0.14
CG16959: DRSC10230 -0.2
CG31673: DRSC03207 -0.6
Hrb27C: DRSC03347 -1.26
CG43153: DRSC01189 0.55
CG14903: DRSC15024 0.22
Sfp26Ad: DRSC00904 -0.84
CG42712 (retired record): DRSC01038 -0.53
CG34450: DRSC17822 0.1
Art6: DRSC16583 -0.21
GstT4: DRSC19757 -0.49
CG15773: DRSC18079 0.11
Fib: DRSC04614 -0.19
pAbp: DRSC07659 -5.83
gl: DRSC16957 0.51
Dred: DRSC11057 1.51; DRSC11059 0.13
gdl-ORF39 + gdl: DRSC11350 0.22
CG15916: DRSC19740 0.2
zyd: DRSC20716 -0.01
Bili: DRSC14405 2.41
Gr5a: DRSC18085 0.66
CG6602: DRSC10673 -0.51
Lst: DRSC07146 1.07
mthl14: DRSC07865 -0.23
CG3184: DRSC18289 -0.25
Tomosyn: DRSC19365 -0.18; DRSC19692 0.63; DRSC19782 0.1; DRSC19842 0.53
CG7567: DRSC16258 -1.01
CG30049: DRSC21345 -1.56
epsilonTry: DRSC07611 0.25
Nopp140: DRSC11872 0.23
fs(1)Ya: DRSC18776 -1.06
Eo: DRSC20187 -1.57
CG13712: DRSC08321 -1.21
Dek: DRSC07418 -1.38
Sec10: DRSC17053 0.28
CG6805: DRSC07011 0.73
CG15080: DRSC06511 0.54
grim: DRSC11352 -1.13
Scr: DRSC12604 -2.26
Apt1: DRSC10348 0.28
Sec61gamma: DRSC19570 -0.91
sw + Sdic4 + Sdic3 + 2 more: DRSC20696 0.44
PI31: DRSC07306 0.06
CG8665: DRSC03098 -0.21
CG14324: DRSC14803 -0.13
CG33253: DRSC19547 0.81; DRSC20053 0.65
neur + asRNA:CR31429: DRSC17013 0.08
CG33341: DRSC22887 -1.2
lncRNA:CR43337: DRSC07893 1.07
CG1529: DRSC20515 0.04
OstDelta: DRSC06980 0.29
CG11686: DRSC14350 0.48
Septin2: DRSC16855 -0.14
CG4949: DRSC19926 0.49
CG12746: DRSC12218 0.5
Mtl: DRSC16751 -1.29
CG32079: DRSC22636 0.45
TwdlV: DRSC12226 0.01

10 consecutive reagents from above, for reference:
replicate 1, z-score of dpERK with insulin, by gene and reagent
CG42712 (retired record): DRSC01038 -0.53
CG34450: DRSC17822 0.1
Art6: DRSC16583 -0.21
GstT4: DRSC19757 -0.49
CG15773: DRSC18079 0.11
Fib: DRSC04614 -0.19
pAbp: DRSC07659 -5.83
gl: DRSC16957 0.51
Dred: DRSC11057 1.51; DRSC11059 0.13
